Source: paper PMC11534337
Results are given in words; binding and its absence hold for the method and conditions named. In cells and extracts the contact can be indirect. These calls come from enrichment with a bait or labelling near it, and not all partners need be listed. Each block holds one binder with its values, some of them ahead of it.

Biological target: T1, SIRT4 (human (endogenous in human TECs and HK2)) (UniProt Q9Y6E7)
T1 sequence: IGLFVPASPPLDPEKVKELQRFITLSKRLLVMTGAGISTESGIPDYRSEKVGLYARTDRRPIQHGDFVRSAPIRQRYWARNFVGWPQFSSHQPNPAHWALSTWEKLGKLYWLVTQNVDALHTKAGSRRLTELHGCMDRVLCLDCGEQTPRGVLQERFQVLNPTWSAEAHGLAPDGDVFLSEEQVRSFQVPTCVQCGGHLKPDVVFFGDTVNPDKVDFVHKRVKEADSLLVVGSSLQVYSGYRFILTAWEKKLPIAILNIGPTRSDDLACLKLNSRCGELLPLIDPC
Assay: affinity purification with mass spectrometry; RIME: human TECs treated with TGF-β1 or DMSO, cross-linked in 1% formaldehyde, sonicated, immunoprecipitated with a SIRT4 antibody; proteins in three of three replicates and in no IgG control

- binding: binds
B1: TSR1 (protein, UniProt Q2NL82 1-804)
chain: MAAHRPGPLKQQNKAHKGGRHRGRGSAQRDGKGRLALKTLSKKVRKELSRVDQRHRASQLRKQKKEAVLAEKRQLGGKDGPPHQVLVVPLHSRISLPEAMQLLQDRDTGTVHLNELGNTQNFMLLCPRLKHRWFFTSARPGDLHVVLDMAKVADTILFLLDPLEGWDSTGDYCLSCLFAQGLPTYTLAVQGISGLPLKKQIDTRKKLSKAVEKRFPHDKLLLLDTQQEAGMLLRQLANQKQQHLAFRDRRAYLFAHAVDFVPSEENNLVGTLKISGYVRGQTLNVNRLLHIVGYGDFQMKQIDAPGDPFPLNPRGIKPQKDPDMAMEICATDAVDDMEEGLKVLMKADPGRQESLQAEVIPDPMEGEQTWPTEEELSEAKDFLKESSKVVKKVPKGTSSYQAEWILDGGSQSGGEGDEYEYDDMEHEDFMEEESQDESSEEEEEYETMTIGESVHDDLYDKKVDEEAEAKMLEKYKQERLEEMFPDEVDTPRDVAARIRFQKYRGLKSFRTSPWDPKENLPQDYARIFQFQNFTNTRKSIFKEVEEKEVEGAEVGWYVTLHVSEVPVSVVECFRQGTPLIAFSLLPHEQKMSVLNMVVRRDPGNTEPVKAKEELIFHCGFRRFRASPLFSQHTAADKHKLQRFLTADMALVATVYAPITFPPASVLLFKQKSNGMHSLIATGHLMSVDPDRMVIKRVVLSGHPFKIFTKMAVVRYMFFNREDVLWFKPVELRTKWGRRGHIKEPLGTHGHMKCSFDGKLKSQDTVLMNLYKRVFPKWTYDPYVPEPVPWLKSEISSTVPQGGME

- binding: binds
B2: SART1 (protein, UniProt O43290 1-800)
chain: MGSSKKHRGEKEAAGTTAAAGTGGATEQPPRHREHKKHKHRSGGSGGSGGERRKRSRERGGERGSGRRGAEAEARSSTHGRERSQAEPSERRVKREKRDDGYEAAASSKTSSGDASSLSIEETNKLRAKLGLKPLEVNAIKKEAGTKEEPVTADVINPMALRQREELREKLAAAKEKRLLNQKLGKIKTLGEDDPWLDDTAAWIERSRQLQKEKDLAEKRAKLLEEMDQEFGVSTLVEEEFGQRRQDLYSARDLQGLTVEHAIDSFREGETMILTLKDKGVLQEEEDVLVNVNLVDKERAEKNVELRKKKPDYLPYAEDESVDDLAQQKPRSILSKYDEELEGERPHSFRLEQGGTADGLRERELEEIRAKLRLQAQSLSTVGPRLASEYLTPEEMVTFKKTKRRVKKIRKKEKEVVVRADDLLPLGDQTQDGDFGSRLRGRGRRRVSEVEEEKEPVPQPLPSDDTRVENMDISDEEEGGAPPPGSPQVLEEDEAELELQKQLEKGRRLRQLQQLQQLRDSGEKVVEIVKKLESRQRGWEEDEDPERKGAIVFNATSEFCRTLGEIPTYGLAGNREEQEELMDFERDEERSANGGSESDGEENIGWSTVNLDEEKQQQDFSASSTTILDEEPIVNRGLAAALLLCQNKGLLETTVQKVARVKAPNKSLPSAVYCIEDKMAIDDKYSRREEYRGFTQDFKEKDGYKPDVKIEYVDETGRKLTPKEAFRQLSHRFHGKGSGKMKTERRMKKLDEEALLKKMSSSDTPLGTVALLQEKQKAQKTPYIVLSGSGKSMNANTITK
